Results are given as percent effect. The controls that fix the scale are not given in the record; negative values are as filed. Compounds were drawn at random from those tested, without regard to their results. A dash means the value is not listed here; it may have been measured.

Mtb growth Cornell: 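Whole-cell assay for inhibitors of Mycobacterium tuberculosis growth, labelled Cornell in the record; the read-out is not stated. The concentration is filed as 10 mM, unlikely as a test dose, so the dose is not known. The record gives no direction; compounds strong in two other growth screens of this library score well above the rest, so higher reads as stronger inhibition. Of about 53,000 compounds tested this way, about 900 (1.7%) reached 50% or more in at least one test.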
Mtb heat-shock: 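Assay on Mycobacterium tuberculosis, filed only as a heat shock assay from Cornell; the read-out is not stated. The concentration is filed as 10 mM, unlikely as a test dose, so the dose is not known. The record gives no direction; compounds that gave an IC50 in retests scored well above the rest, so higher reads as stronger inhibition. About 69,000 compounds were tested under these conditions; 1.4% (about 930) showed 50% or more at least once.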

structure	Mtb growth Cornell	Mtb heat-shock
[H][C@]12CCN(C(=O)c3ccc4[nH]ccc4c3)C[C@@]1([H])OCCN(CCOC)C2	3.575	1.043
CN(C)C(=O)CNC(=O)Nc1cccc(Cl)c1SC(F)F	16.68	18.06
O=S(=O)(NCC(O)c1ccc(C(F)(F)F)cc1)C1CC1 (stereo unspecified)	-32.12	-11.07
N#Cc1cc(F)c(NCCCOCC2CCOC2)c(F)c1 (stereo unspecified)	-	25.22
CCn1c(N)nc2cc(C(=O)N(C)Cc3cc(C(C)(C)C)n[nH]3)cnc21	12.68	-13.17
O=S(=O)(CCN1CCOC(Cn2cncn2)C1)c1ccccc1 (stereo unspecified)	8.328	-5.728
NC(=O)C1CCCN1CCCc1ccc(C(F)(F)F)cc1 (stereo unspecified)	45.97	-11.82
Cc1ccc(C(=O)N2CCc3ncnc(C)c3CC2)o1	-18.12	-13.36
COCCN1CC(C(=O)N(C)Cc2cc(-c3cccnc3)no2)CC1=O (stereo unspecified)	10.97	29.85
O=C(Nc1ccc(-c2ccn[nH]2)cc1)C1CCCN(Cc2ccoc2)C1 (stereo unspecified)	23.68	4.699
O=C1CCCc2occ(C(=O)N3CCCC4(CCNC4)C3)c21 (stereo unspecified)	16.25	3.355
Cc1cnc2n(c1=O)C(CC(=O)NCc1cccs1)CS2 (stereo unspecified)	18.71	25.42
Cc1cc(Cl)ccc1-n1ncc(C(=O)NCC2COC(C)(C)O2)c1N (stereo unspecified)	-29.52	43.72
O=C(NCC(CO)Cc1ccc(Cl)cc1)c1ccncc1F (stereo unspecified)	48.01	8.676
c1nc(CCNc2nc(C3CC3)nc3c2CCNCC3)c[nH]1	8.345	-37.66
Cc1n[nH]c(C)c1-c1cnc(CC2CCCN(S(C)(=O)=O)C2)cn1 (stereo unspecified)	-12.2	-8.315
O=S(=O)(c1cncc(F)c1)N1CCSC2(CCCCC2)C1	33.66	3.08
CCCc1n[nH]c(C2CN(C(=O)c3ccnc(C4CC4)n3)CCO2)n1 (stereo unspecified)	-	13.65
CS(=O)(=O)N1CC[C@@H](CC(=O)O)[C@@H](CC2=NCCc3cc(F)ccc32)C1	-	-10.19
CCOCc1cnc2n1CCN(Cc1cccs1)C2C.O=C(O)C(F)(F)F (stereo unspecified)	-0.2582	3.325
O=C(C1CCOCC1)N1CCOCC(Cc2ncccn2)C1 (stereo unspecified)	-33.49	16.7
O=C(NCC1=CCCCC1)C(c1cccnc1)N1CCOCC1 (stereo unspecified)	10.34	12.83
CCc1nsc(N2CCOC3(CCCC3)C2)n1	2.067	-8.19
CN1CCC2(CCCN(S(=O)(=O)c3ccc(-c4cnco4)s3)C2)C1 (stereo unspecified)	4.541	-29.9
COCC(C)NC(=O)c1cc(C)n(-c2cccc(OC)c2)c1C (stereo unspecified)	-	-12.02
[H][C@]12CCN(Cc3ccco3)[C@@]1([H])CC[C@@H](COCC(=O)N1CCCC1)O2	-12.33	-14.56
CCCc1cc(N2CCC(NCC3(O)CCN(C)CC3)CC2)nc(C)n1	10.1	-11.19
CSCC(C)(O)CNC(=O)c1ccc(Br)cc1C (stereo unspecified)	-0.8972	-19.73
CN(Cc1cnn(C)c1)C(=O)C(c1ccccc1)N1CCSCC1 (stereo unspecified)	15.99	-21.55
Cc1n[nH]c2c1C(c1ccc(F)cc1)SCC(=O)N2 (stereo unspecified)	18.75	17.47
Cc1ccc(C(=O)N2CCCC3(CCCC(=O)N3C)C2)cc1F (stereo unspecified)	16.89	-19.29
CS(=O)(=O)NCCCN1CCCC1Cc1ccccc1 (stereo unspecified)	24.63	-5.794
[H][C@]12CCN(C(=O)c3cc[nH]n3)[C@@]1([H])CC(=O)N2Cc1cccnc1	20.59	-8.344
Cc1cccc(-c2nc(C)nn2CC(=O)NC(C)C)c1	-33.77	-21.7
Cn1c(C(=O)NS(C)(=O)=O)ccc1-c1ccccc1	-	-34.85
CCn1ccnc1CN1CCN(c2nc(C)cc(OC)n2)CC1	-0.3061	-25.2
O=C1NCCCCC1NC(=O)N1CCCc2cc(F)ccc21 (stereo unspecified)	22.53	-1.562
CC(C)CN(Cc1nc2c(cnn2C)c(=O)[nH]1)CC(C)C	-	12.8
Cc1ccc(C(=O)Nc2ccc(N(C)C)cn2)n1C	-	9.18
CN1CCC(c2cccc(-c3ccc(C(=O)O)cc3)n2)CC1	-1.496	-6.647
[H][C@@]12CN(Cc3cccc(Cl)c3)C[C@]1([H])C2CN (stereo partly specified)	36.04	-12.59
CCOc1cc(C)nc(N2CCN(C(C)c3nc(C)no3)CC2)n1 (stereo unspecified)	18.62	-2.029
O=C(O)C(F)(F)F.O=C(O)C(F)(F)F.O=C(O)C(F)(F)F.[H][C@@]12CCCO[C@]1([H])[C@H](N(C)Cc1ccco1)CN(Cc1ccncc1)C2	11.86	-21.64
CCN1CCC(NC(=O)CN2CCCCC2Cn2cccn2)CC1 (stereo unspecified)	11.05	-52.06
NC(=O)CC1c2cccnc2C(=O)N1Cc1ccccc1 (stereo unspecified)	18.93	-19.33
Cc1nn(-c2ccccc2)nc1C(=O)NCC(c1ccco1)N(C)C (stereo unspecified)	9.619	20.07
FC(F)COc1ccccc1NCc1nnsc1Cl	-	-12.14
Cc1cnc2c(c1NCc1cccs1)c(=O)n(C)c(=O)n2C	-15.6	-2.27
O=C(O)CNC(=O)Cc1csc(-c2cccc(Cl)c2)n1	-	-14.48
CC(C)c1noc(-c2ccnc(-n3cnc(C(=O)O)c3)c2)n1	27.6	-32.91
O=C([C@@H]1CCCO1)N1CCn2c(Cn3cccn3)cnc2C1	10.64	-6.017
COc1cccc(NC(=O)C2CC(=O)n3cnnc3S2)c1 (stereo unspecified)	106.8	15.86
CNc1ncc(C(=O)N2CCC3(CC2)Nc2ccccc2NC3=O)cn1	5.23	-3.044
CC(C)C(C)(C#N)NC(=O)CN1CCC(c2ccnn2CCO)CC1 (stereo unspecified)	-	-13.47
CCc1ncnc(N(C)CC2CCCCO2)c1F (stereo unspecified)	-	-0.7494
CC(C)(O)CN1CCN(C(=O)c2cccnc2O)CC1	7.952	-10.5
COc1ccc([C@@H]2CN(Cc3ccncc3)C[C@H]2N(C)C)cc1	-	-1.152
COc1cc(CN2CC[C@@H](N3CCCCCC3)[C@H](O)C2)cc(Cl)c1OC	-4.074	10.74
[H][C@@]12CCN(Cc3ccoc3)[C@]1([H])C[C@@H](C(=O)NCC1CCOCC1)O2	-	-19.36
COc1nn(C)c2c1CCCN(C(=O)c1cccc(C)n1)C2.O=C(O)C(F)(F)F	-3.541	26.28
CC(C)[C@@H]1CN(Cc2cnc3c(S(C)(=O)=O)cnn3c2)C[C@H]1N(C)C	-	-133.5
CCOC1CCN(C(=O)c2ccc(-c3cccc(C)c3)[nH]c2=O)CC1	21.92	16.83
CCN(CC(C)C#N)C(=O)CNc1ccc(F)c(C)c1 (stereo unspecified)	1.918	-17.4
c1coc(CN2CCc3ncnc(C4CCOC4)c3CC2)c1 (stereo unspecified)	3.235	-21.71
O=C(NCCc1ccncc1)c1ccc(S(=O)(=O)NC2CCC2)cc1	-1.863	-18.63

From ChEMBL document CHEMBL3988442, “University of Dundee, Small-Polar-MMV Screening Library” (2021).